Test results from PubChem BioAssay AID504467 (National Center for Advancing Translational Sciences (NCATS), 2011).
Hit rate of the full screen: of about 330,000 compounds, about 7,700 (2.3%) were called active. Inconclusive results, whose numbers are uncertain, are shown with a selection of clear calls. The call rests on the fitted dose curve; in most records, active means well fitted inhibition curve with a large enough effect; inconclusive means small, poorly fitted or top-dose-only effect, or effect the other way; inactive means flat fitted curve, though single readings scatter. Potencies beside an inconclusive call are fits to weak or partial responses and may not hold up.

assay: qHTS screen for small molecules that inhibit ELG1-dependent DNA repair in human embryonic kidney (HEK293T) cells expressing luciferase-tagged ELG1; details: HEK293T ELG1-luciferase reporter, luminescence, 16 h, DNA damage induced by 5-fluorouridine; activity change, negative = inhibition: at 46.1 µM (top of the series); further: nearly all actives have a fitted effect of over 55% in size
Summary of the method: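 Step one: seed 2,000 cells per well. Step two: pin-transfer compound or DMSO alongside 5-fluorouridine. Step three: incubate 16 hr, 37 °C, 5% CO2. Step four: add ONE-Glo, wait 30 min, read luminescence.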
On the % scale 0 is the no-effect control and ±100 the full control effect; potency means the concentration at half of the fitted maximal effect.

SMILES | Potency | activity change, negative = inhibition
CCOC(=O)N1CCC(=NNC(=O)c2ccccc2F)CC1 | inconclusive: 13 µM [activator, partial curve] | –
Cc1cc2cc(C(c3nnnn3Cc3ccco3)N3CCc4ccccc4C3)c(=O)[nH]c2cc1C (stereo not drawn) | inconclusive: 20.6 µM [inhibitor, single point] | –
Cc1csc(NC(=O)c2cc3c(s2)-c2ccccc2OC3)n1 | inconclusive: 13 µM [activator, partial curve] | –
CCOC(=O)Cn1c(C)cc(COC)c(C#N)c1=O | inconclusive: 7.3 µM [activator, partial curve, poor fit] | –
CC1(C)CC(NCc2cccc([N+](=O)[O-])c2)CC(C)(C)N1 | inconclusive: 29.1 µM [activator, partial curve, poor fit] | –
COc1cc(CNCCc2c[nH]c3ccccc23)ccc1OCc1ccccc1F | – | inactive: 9.56%
CCOc1cc(-c2cc(-c3ccc(C)cc3)nc(N)c2C#N)ccc1O | active: 16.4 µM | –
COc1ccc(CCn2c(-c3ccco3)nc3nc4ccccc4nc32)cc1 | inconclusive: 3.16 µM [inhibitor, partial curve, poor fit] | –
CCn1c(=O)cc(SCC(=O)N2CCN(C(=O)c3ccco3)CC2)c2ccccc21 | inconclusive: 25.9 µM [activator, single point] | –
COc1ccc(-c2nn3c(-c4ccccc4)nnc3s2)cc1OC | inconclusive: 25.1 µM [inhibitor, single point] | –
COc1c(F)c(F)c(C(=O)Nc2ccc(N3CCN(C(C)=O)CC3)c(Cl)c2)c(F)c1F | active: 23.1 µM | –
O=C(Nc1ccc(-c2csc(Nc3ccc(Cl)cc3)n2)cc1)c1cccc(C(F)(F)F)c1 | inconclusive: 5.8 µM [inhibitor, single point] | –
COc1ccc(-c2ncn(CCC#N)c2[N+](=O)[O-])cc1 | inconclusive: 29.1 µM [activator, partial curve, poor fit] | –
Cc1cc(=O)oc2c(C)c(OC(C)C(=O)Nc3ccc(N4CCC(C)CC4)cc3)ccc12 (stereo not drawn) | – | inactive: -2.14%
CCOc1ccc(C(=S)N2CCCC2)cc1 | inconclusive: 18.4 µM [activator, single point] | –
CCOC(=O)N1CCC(NC(=O)C2=CCN(S(=O)(=O)c3ccc(OC)cc3)CC2)CC1 | inconclusive: 13 µM [inhibitor, partial curve] | –
CCCCN(C(=O)c1cccc(-n2cccc2)c1)c1c(N)n(CCCC)c(=O)[nH]c1=O | inconclusive: 0.82 µM [activator, partial curve, poor fit] | –
Cc1ccccc1/C=C/C(=O)c1ccc([N+](=O)[O-])o1 | inconclusive: 31.6 µM [inhibitor, single point] | –

One compound at a time (already shown):
COc1cc(CNCCc2c[nH]c3ccccc23)ccc1OCc1ccccc1F is listed with activity change, negative = inhibition: inactive: 9.56%
COc1ccc(-c2ncn(CCC#N)c2[N+](=O)[O-])cc1 is listed with Potency: inconclusive: 29.1 µM [activator, partial curve, poor fit]
